Reference: patent publication US20210054067A1 (ALETHIA BIOTHERAPEUTICS, published 2021)
Changes are numbered by the printed parent chain. No constants are given. Whether binding was seen depends on the method and setting. Some entries that bind do so weakly or less than the wild type.

B1: humanized 3A4 antibody Lh1Hh2 (antibody, human IgG1, kappa, V domains shown)
VH: QIQLVQSGAEVKKPGASVKVSCKASGYTFTDDYMSWVRQAPGQGLEWMGDINPYNGDTNYNQKFKGRVTITADKSTSTAYMELSSLRSEDTAVYYCARDPGAMDYWGQGTLVTVSS
VL: DIVMTQTPLSLPVTPGEPASISCRSSQSLLHSNGNTYLEWYLQKPGQSPQLLIYTVSNRFSGVPDRFSGSGSGTDFTLKISRVEAEDVGVYYCFQGSHVPLTFGQGTKLEIKR
notes: human IgG1 kappa
B2: humanized 3A4 antibody Lh1Hh1 (antibody, human IgG1, kappa, V domains shown)
VH: B1 VH with I2V, K74T
VL: B1 VL
notes: 100% humanized frameworks; human IgG1 kappa; also called H1L1
B3: humanized 3A4 antibody Lh1Hh3 (antibody, human IgG1, kappa, V domains shown)
VH: B1 VH with M48I, V68A, I70L, A72V
VL: B1 VL
notes: human IgG1 kappa
B4: humanized 3A4 antibody Lh1Hh4 (antibody, human IgG1, kappa, V domains shown)
VH: B1 VH with R38K, M48I, R67K, V68A, I70L, A72V
VL: B1 VL
notes: human IgG1 kappa
B5: humanized 3A4 antibody Lh2Hh1 (antibody, human IgG1, kappa, V domains shown)
VH: B1 VH with I2V, K74T
VL: B1 VL with I2V, Q50K
notes: human IgG1 kappa
B6: humanized 3A4 antibody Lh2Hh2 (antibody, human IgG1, kappa, V domains shown)
VH: B1 VH
VL: B1 VL with I2V, Q50K
notes: human IgG1 kappa
B7: humanized 3A4 antibody Lh2Hh3 (antibody, human IgG1, kappa, V domains shown)
VH: B1 VH with M48I, V68A, I70L, A72V
VL: B1 VL with I2V, Q50K
notes: human IgG1 kappa
B8: humanized 3A4 antibody Lh2Hh4 (antibody, human IgG1, kappa, V domains shown)
VH: B1 VH with R38K, M48I, R67K, V68A, I70L, A72V
VL: B1 VL with I2V, Q50K
notes: human IgG1 kappa; 10 mouse framework residues retained; also called H4L2
B9: 3A4 recombinant monoclonal Fab (from Omniclonal AL0003 A2ZB, prepared from E. coli) (Fab, V domains shown)
VH: QIQLVQSGPEMVKPGASVKMSCKASGYTFTDDYMSWVKQSHGKSLEWIGDINPYNGDTNYNQKFKGKAILTVDKSSSTAYMQLNSLTSEDSAVYYCARDPGAMDYWGQGTSVTVSS
VL: DVVMTQTPLSLAVSLGDQASISCRSSQSLLHSNGNTYLEWYLQKPGQSPKLLIHTVSNRFSGVPDRFSGSGSGTDFTLKISRVEAEDLGVYYCFQGSHVPLTFGAGTRLELK
B10: 3A4 chimeric anti-KAAG1 antibody (mouse-human chimeric IgG1) (antibody, V domains shown)
VH: B9 VH
VL: DVVMTQTPLSLAVSLGDQASISCRSSQSLLHSNGNTYLEWYLQKPGQSPKLLIHTVSNRFSGVPDRFSGSGSGTDFTLKISRVEAEDLGVYYCFQGSHVPLTFGAGTRLELKR
notes: also called chimeric 3A4; murine 3A4

Molecular target: T1, recombinant human KAAG1 (purified protein) (human) (UniProt Q9UBP8)
T1 sequence: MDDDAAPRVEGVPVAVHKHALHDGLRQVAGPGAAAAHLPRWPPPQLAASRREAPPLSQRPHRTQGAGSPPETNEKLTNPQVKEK
Experiment: SPR (ProteOn XPR36)

binding, binds:
B1
B2
B3
B4
B5
B6
B7
B8

Molecular target: T1, recombinant human KAAG1 (purified protein) (human)
Experiment: screen of 96 recombinant monoclonal Fabs

binding, binds:
B9

Molecular target: T1, recombinant human KAAG1 (purified protein) (human)
Experiment: ELISA, recombinant human KAAG1 coated on plate

binding, binds:
B10
B1
B2
B3
B4
B5
B6
B7
B8

Molecular target: T1, recombinant human KAAG1 (purified protein) (human)
Experiment: ELISA: recombinant human KAAG1 coated on the plate, HRP anti-human antibody, OD450 (L1 series)

binding, binds:
B10
B1
B2
B3
B4

Molecular target: T1, recombinant human KAAG1 (purified protein) (human)
Experiment: ELISA: recombinant human KAAG1 coated on the plate, HRP anti-human antibody, OD450 (L2 series)

binding, binds:
B10
B5
B6
B7
B8

Molecular target: T1, recombinant human KAAG1 (purified protein) (human)
Experiment: SPR (ProteOn XPR36): purified 3A4 captured on anti-human IgG Fc surface, KAAG1 as analyte; bar chart of affinity constants

binding, binds:
B10

Molecular target: T1, recombinant human KAAG1 (purified protein) (human)
Experiment: SPR (ProteOn XPR36): purified 3A4 captured on anti-human IgG Fc surface, KAAG1 as analyte; bar chart of association rate constants

binding, binds:
B10

Molecular target: T1, recombinant human KAAG1 (purified protein) (human)
Experiment: SPR (ProteOn XPR36): purified 3A4 captured on anti-human IgG Fc surface, KAAG1 as analyte; bar chart of dissociation rate constants

binding, binds:
B10
